Drawing on article PMC9105187, this text covers binding for 4 substances.

Amino acid sequences for entries named in this document (tags omitted).
UniProt Q12983: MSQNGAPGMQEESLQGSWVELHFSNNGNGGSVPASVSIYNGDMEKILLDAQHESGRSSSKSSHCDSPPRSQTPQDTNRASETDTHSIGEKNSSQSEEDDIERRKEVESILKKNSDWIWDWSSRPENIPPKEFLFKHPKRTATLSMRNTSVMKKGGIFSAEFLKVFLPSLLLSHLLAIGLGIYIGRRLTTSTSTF
UniProt P12235: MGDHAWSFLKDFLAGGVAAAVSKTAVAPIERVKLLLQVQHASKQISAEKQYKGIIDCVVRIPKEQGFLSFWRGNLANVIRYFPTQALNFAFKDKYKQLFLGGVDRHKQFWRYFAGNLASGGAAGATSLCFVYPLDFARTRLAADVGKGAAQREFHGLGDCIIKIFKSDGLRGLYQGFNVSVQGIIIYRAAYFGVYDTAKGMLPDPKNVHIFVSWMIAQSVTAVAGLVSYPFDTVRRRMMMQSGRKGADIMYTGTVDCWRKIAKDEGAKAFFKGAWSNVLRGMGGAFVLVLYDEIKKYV
UniProt Q9Y262: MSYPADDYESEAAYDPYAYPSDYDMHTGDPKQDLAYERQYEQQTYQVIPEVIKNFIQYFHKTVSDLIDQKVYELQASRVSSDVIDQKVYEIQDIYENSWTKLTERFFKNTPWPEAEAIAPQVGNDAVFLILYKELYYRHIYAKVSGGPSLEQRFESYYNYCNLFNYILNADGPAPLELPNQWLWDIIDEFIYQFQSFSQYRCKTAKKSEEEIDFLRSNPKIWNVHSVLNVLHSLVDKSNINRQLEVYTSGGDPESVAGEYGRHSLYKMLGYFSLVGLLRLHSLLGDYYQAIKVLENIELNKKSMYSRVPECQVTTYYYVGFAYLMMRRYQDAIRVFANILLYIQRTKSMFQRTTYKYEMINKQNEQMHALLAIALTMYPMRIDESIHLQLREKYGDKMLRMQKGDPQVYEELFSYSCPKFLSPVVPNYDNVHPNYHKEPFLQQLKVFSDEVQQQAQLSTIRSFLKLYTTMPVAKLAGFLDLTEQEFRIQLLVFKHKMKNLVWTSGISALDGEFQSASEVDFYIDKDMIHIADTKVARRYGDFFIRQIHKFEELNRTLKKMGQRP
UniProt Q9NS69: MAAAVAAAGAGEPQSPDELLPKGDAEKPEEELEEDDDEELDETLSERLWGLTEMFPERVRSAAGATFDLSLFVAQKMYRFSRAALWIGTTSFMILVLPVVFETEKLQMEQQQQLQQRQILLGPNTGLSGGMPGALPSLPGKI
UniProt P60842: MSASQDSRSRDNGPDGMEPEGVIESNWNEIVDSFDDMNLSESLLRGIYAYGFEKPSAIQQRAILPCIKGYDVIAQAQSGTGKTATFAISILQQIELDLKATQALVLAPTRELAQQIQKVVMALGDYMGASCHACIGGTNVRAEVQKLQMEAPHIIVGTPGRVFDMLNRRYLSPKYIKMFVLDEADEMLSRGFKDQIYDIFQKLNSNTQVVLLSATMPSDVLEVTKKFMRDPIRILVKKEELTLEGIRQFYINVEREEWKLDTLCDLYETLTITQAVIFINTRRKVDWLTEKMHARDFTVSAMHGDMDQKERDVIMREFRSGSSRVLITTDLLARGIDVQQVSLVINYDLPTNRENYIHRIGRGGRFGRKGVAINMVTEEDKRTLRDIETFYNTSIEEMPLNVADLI

No constants are given. Whether binding was seen depends on the method and setting. Binding seen in cells or lysates may run through a third protein. These calls come from enrichment with a bait or labelling near it, and not all partners need be listed.

The test has as its target Bcl-2 nineteen kilodalton interacting protein 3 (human) (human (endogenous in LV myocardium)) (UniProt Q12983). Kind of test: affinity purification with mass spectrometry; 500 ug lysate of human HFrEF LV myocardium (n = 3, taken at LVAD implantation) incubated with 10 ug mouse monoclonal BNIP3 antibody (Abcam ab10433); eluate on SDS-PAGE, in-gel trypsin digestion, nano-LC-MS/MS.

On to “ADP/ATP translocase isoform 1 (human) (from UniProt P12235 1-298)”, for which the binding entry was “binds”.
Under “eukaryotic translation initiation factor EIF3L (human) (from UniProt Q9Y262 1-564)” stands “binds”.
Under “TOMM22 (human) (from UniProt Q9NS69 1-142)” stands “binds”; under “eukaryotic translation initiation factor EIF4A1 (human) (from UniProt P60842 1-406)”, “binds”.
